Results are given in words; binding and its absence hold for the method and conditions named. In cells and extracts the contact can be indirect. Some entries that bind do so weakly or less than the wild type. For some of these results: Where a sequence is shown, tags or fusion partners need not be part of it.
Experiments:
[1] = molecular target: anaphase promoting complex subunit 1 (APC1) (Homo sapiens) (UniProt Q9H1A4); assay: anti-FLAG co-immunoprecipitation of FLAG-Apoptin deletion mutants from H1299 cells, APC1 immunoblot
[2] = molecular target: T1, FLAG-tagged wild type Apoptin expressed from adenovirus Ad-Apwt (Chicken anemia virus) (UniProt Q99152); assay: co-immunoprecipitation on anti-FLAG beads from H1299 cells (multimerization)
T1 sequence: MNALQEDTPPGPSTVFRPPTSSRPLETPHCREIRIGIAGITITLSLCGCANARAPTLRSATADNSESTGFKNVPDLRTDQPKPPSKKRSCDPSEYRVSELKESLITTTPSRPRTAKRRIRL

The chains behind the UniProt entries cited, without tags or fusion partners.
UniProt Q9H1A4: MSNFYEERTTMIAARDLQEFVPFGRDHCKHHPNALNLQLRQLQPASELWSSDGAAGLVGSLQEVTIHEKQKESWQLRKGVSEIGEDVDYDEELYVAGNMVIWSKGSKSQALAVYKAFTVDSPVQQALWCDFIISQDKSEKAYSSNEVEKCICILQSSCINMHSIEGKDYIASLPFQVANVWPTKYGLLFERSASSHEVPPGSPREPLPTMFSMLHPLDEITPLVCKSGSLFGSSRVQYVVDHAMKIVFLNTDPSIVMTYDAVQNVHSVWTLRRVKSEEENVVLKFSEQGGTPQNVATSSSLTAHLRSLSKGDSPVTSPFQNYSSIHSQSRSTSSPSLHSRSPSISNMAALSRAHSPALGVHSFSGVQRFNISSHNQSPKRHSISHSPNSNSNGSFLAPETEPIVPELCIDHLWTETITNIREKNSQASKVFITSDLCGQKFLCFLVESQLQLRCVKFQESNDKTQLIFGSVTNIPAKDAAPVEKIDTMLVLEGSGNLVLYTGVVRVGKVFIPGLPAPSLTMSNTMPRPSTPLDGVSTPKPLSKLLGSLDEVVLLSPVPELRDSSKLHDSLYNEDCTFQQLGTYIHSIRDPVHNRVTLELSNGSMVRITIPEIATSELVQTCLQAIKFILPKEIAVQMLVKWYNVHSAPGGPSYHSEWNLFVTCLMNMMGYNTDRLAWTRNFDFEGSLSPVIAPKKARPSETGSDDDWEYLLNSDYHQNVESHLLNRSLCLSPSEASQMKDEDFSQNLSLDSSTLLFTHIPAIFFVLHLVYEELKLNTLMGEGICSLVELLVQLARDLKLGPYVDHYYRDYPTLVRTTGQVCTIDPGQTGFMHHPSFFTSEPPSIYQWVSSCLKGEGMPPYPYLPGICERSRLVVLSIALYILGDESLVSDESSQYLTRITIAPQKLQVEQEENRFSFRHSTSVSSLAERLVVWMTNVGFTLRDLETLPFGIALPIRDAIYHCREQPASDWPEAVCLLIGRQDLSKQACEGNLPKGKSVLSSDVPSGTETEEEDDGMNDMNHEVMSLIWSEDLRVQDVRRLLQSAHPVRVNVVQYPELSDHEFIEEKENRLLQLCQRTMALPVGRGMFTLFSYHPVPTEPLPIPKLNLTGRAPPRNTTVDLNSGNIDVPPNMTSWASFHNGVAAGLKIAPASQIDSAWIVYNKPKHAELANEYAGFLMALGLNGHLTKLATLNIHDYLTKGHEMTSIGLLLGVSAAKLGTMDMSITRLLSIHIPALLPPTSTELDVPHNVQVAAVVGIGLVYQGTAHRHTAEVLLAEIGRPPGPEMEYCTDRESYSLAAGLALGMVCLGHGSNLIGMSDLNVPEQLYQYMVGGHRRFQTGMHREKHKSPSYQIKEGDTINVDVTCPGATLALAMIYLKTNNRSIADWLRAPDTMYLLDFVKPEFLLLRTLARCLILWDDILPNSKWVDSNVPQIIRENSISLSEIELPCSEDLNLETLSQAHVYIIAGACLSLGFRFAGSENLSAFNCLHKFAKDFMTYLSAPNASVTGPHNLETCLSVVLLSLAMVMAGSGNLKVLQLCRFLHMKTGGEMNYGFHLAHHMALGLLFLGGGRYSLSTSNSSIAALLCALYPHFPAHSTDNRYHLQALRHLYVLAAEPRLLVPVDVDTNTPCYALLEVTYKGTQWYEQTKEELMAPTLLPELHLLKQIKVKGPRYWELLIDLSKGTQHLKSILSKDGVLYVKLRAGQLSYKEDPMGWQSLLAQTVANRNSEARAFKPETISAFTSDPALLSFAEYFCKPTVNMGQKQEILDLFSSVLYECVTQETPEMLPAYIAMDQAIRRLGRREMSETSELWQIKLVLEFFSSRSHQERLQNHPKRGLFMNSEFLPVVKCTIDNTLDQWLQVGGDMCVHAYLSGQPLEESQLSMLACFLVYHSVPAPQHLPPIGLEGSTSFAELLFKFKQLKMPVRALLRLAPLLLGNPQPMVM

Substance	binding [1]	binding [2]
FLAG-tagged Apoptin deletion mutant Ap(42-121) (from UniProt Q99152 42-121)	binds	–
FLAG-tagged Apoptin deletion mutant Ap(82-121) (from UniProt Q99152 82-121)	binds	–
GFP-Ap(1-48) (from UniProt P54094 1-48)	–	binds
GFP-Ap(1-88) (from UniProt P54094 1-88)	–	binds
